Source: EP2899279A1

Columns and labels:
[1] = target: Grapevine fanleaf virus isolate B844 (Grapevine fanleaf virus, isolate B844); test: DAS-ELISA, legend of Figure 3B
[2] = target: Grapevine fanleaf virus isolate BE4.11 (Grapevine fanleaf virus, isolate BE4.11); test: DAS-ELISA, legend of Figure 3B
[3] = target: Grapevine fanleaf virus isolate BE5.19 (Grapevine fanleaf virus, isolate BE5.19); test: DAS-ELISA, legend of Figure 3B
[4] = target: Grapevine fanleaf virus isolate BUChardT60 (Grapevine fanleaf virus, isolate BUChardT60); test: DAS-ELISA, legend of Figure 3B
[5] = target: Grapevine fanleaf virus isolate CO2 (Grapevine fanleaf virus, isolate CO2); test: DAS-ELISA, legend of Figure 3B
[6] = target: Grapevine fanleaf virus isolate GHu (Grapevine fanleaf virus, isolate GHu); test: DAS-ELISA, legend of Figure 3B
[7] = target: Grapevine fanleaf virus isolate TD (Grapevine fanleaf virus, isolate TD); test: DAS-ELISA, legend of Figure 3B
[8] = target: Grapevine fanleaf virus isolate B844 (Grapevine fanleaf virus, isolate B844); test: DAS-ELISA: virus captured by anti-GFLV polyclonals, StrepII tagged Nb23 at 1 µg/ml as detection antibody
[9] = target: Grapevine fanleaf virus isolate BE4.11 (Grapevine fanleaf virus, isolate BE4.11); test: as above
[10] = target: Grapevine fanleaf virus isolate BE5.19 (Grapevine fanleaf virus, isolate BE5.19); test: as above
[11] = target: Grapevine fanleaf virus isolate BUChardT60 (Grapevine fanleaf virus, isolate BUChardT60); test: as above
[12] = target: Grapevine fanleaf virus isolate CO2 (Grapevine fanleaf virus, isolate CO2); test: as above
[13] = target: Grapevine fanleaf virus isolate GHu (Grapevine fanleaf virus, isolate GHu); test: as above
[14] = target: Grapevine fanleaf virus isolate TD (Grapevine fanleaf virus, isolate TD); test: as above

Measured: binding

B1: StrepII tagged Nb23 (VHH, not shown: small tags and cut ends)
VHH: QVQLQESGGGSVQVGGSLRVACAASGDTFSGYLAAWFRQAPGKGREGVAAINSKRHTTSYADSVKGRFTISKDNADNIMYLEMNSLKPEDTAIYYCAAADAIGLAEYWSTPTLSAARYKYWGQGTQVTVSS
binds: [1] | [2] | [3] | [4] | [5] | [6] | [7] | [8] | [9] | [10] | [11] | [12] | [13] | [14]

No constants are given. Whether binding was seen depends on the method and setting. Binding calls can cover weak binding; strength is not graded here. Sequences can lack the tags named with a protein.
